# Assay results taken from PubChem BioAssay AID1671190 (National Center for Advancing Translational Sciences (NCATS), 2021).
# Sequences of proteins named here, by UniProt entry; tags and fusion partners are left off. A change or cut given only in a name is not applied to a line headed by its entry.
# UniProt P18054: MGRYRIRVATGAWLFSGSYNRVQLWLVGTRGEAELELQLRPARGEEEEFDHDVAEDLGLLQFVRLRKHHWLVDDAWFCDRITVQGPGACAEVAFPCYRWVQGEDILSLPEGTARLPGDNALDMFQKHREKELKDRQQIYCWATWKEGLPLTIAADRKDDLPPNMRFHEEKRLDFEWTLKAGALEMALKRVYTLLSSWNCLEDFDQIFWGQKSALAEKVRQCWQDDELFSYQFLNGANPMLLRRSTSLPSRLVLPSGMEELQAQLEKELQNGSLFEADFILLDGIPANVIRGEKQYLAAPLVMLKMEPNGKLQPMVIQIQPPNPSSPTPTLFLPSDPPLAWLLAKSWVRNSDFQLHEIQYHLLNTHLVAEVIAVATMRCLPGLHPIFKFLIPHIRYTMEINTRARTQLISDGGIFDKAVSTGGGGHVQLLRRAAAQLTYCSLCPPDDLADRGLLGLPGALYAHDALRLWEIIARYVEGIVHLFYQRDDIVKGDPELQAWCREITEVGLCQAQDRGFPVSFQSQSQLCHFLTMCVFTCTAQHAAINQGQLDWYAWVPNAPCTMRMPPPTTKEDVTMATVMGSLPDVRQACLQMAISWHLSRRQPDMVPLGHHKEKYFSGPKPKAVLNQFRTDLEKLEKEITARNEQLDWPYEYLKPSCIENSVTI
# Hit rate of the full screen: of about 580,000 compounds, about 6,100 (1.1%) were called active. Inconclusive means that the source gave no clear call. Such entries were picked first, then a sample of the others. Calls follow the shape of the dose curve; as a rule, active = well fitted inhibition curve with a large enough effect; inconclusive = small, poorly fitted or top-dose-only effect, or another doubt; inactive = no such curve, though single readings can be large or run the other way. Potencies beside an inconclusive call are fits to weak or partial responses and may not hold up.
# Biological target: Polyunsaturated fatty acid lipoxygenase ALOX12 (Homo sapiens) (UniProt P18054)
# Assay: Primary qHTS assay for inhibitors of human arachidonate 12S-lipoxygenase (ALOX12): Round 2
# Conditions: purified 12hLO, xylenol orange hydroperoxide absorbance; activity change, negative = inhibition: at 108 µM (top of the series) unless noted
# Procedure, shortened: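 Purified human 12hLO at 150 nM in 25 mM Hepes, 0.01% Triton X-100, pH 7.0, preincubated 15 min at room temperature with compound. Reaction started with 40 uM arachidonic acid, 30 min at room temperature. Hydroperoxide measured by Fe-xylenol orange, 573/405 nm absorbance ratio.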
# % is scaled to controls: 0 for no effect and ±100 for the full control effect; potency is read from the fitted curve at half-maximal effect.
SMILES,Potency,"activity change, negative = inhibition"
CCOc1cccc(CN2CCC(n3nccc3NC(=O)CCCc3ccccc3)CC2)c1,"inconclusive: 39.8 µM [inhibitor, partial curve, poor fit]",–
COc1ccccc1-c1ccc([C@@H]2C[C@H]3[C@@H](CN2)CON3C)cc1,"inconclusive: 50.1 µM [inhibitor, partial curve, poor fit]",–
Cc1nonc1OCCNc1ccc([N+](=O)[O-])cc1,"inconclusive: 17.8 µM [inhibitor, partial curve, poor fit]",–
O=C(Nc1ccc(-c2nnc3n2CCCC3)cc1)c1ccco1,–,inactive: 10.8%
CCOc1cc(OCC)cc(C(=O)N2CCC[C@@H]2C(=O)N2CCC[C@@H]2C(=O)NCc2ccccc2Cl)c1,"inconclusive: 126 µM [inhibitor, single point]",–
Clc1ccccc1C1(c2ccnc(CC3CC3)n2)CCNCC1,"inconclusive: 10 µM [inhibitor, full curve]",–
O=C(O)c1cccc2[nH]ccc12,–,inactive: 18.4%
O=S(=O)(c1ccc2c(c1)OCCO2)c1nc(-c2ccco2)oc1NCCCN1CCOCC1,"inconclusive: 31.6 µM [inhibitor, partial curve, poor fit]",–
Cc1nn(CC(=O)Nc2ccccc2F)c(=O)c2c(C)n(-c3ccc(Cl)cc3)nc12,"inconclusive: 158 µM [inhibitor, single point]",–
O=C(CSc1nnc(C2COc3ccccc3O2)o1)N1CCCC1 (stereo unspecified),"inconclusive: 56.2 µM [inhibitor, partial curve, poor fit]",–
Cc1ccc(CC(=O)N2CCN(c3cc(C(F)(F)F)ncn3)CC2)cc1,"inconclusive: 44.7 µM [inhibitor, partial curve]",–
O=C(COC(=O)COc1ccccc1)Nc1cccnc1Cl,"inconclusive: 89.1 µM [inhibitor, partial curve, poor fit]",–
CCOc1ccc(-c2csc(/C(C#N)=C/c3ccc(Br)cc3)n2)cc1,–,inactive: -15.2%
Cc1ncsc1CN1CC[C@H]2C(=O)NCCCCCCN(Cc3ccncc3)[C@@H]2C1,–,inactive: 147%
CN(C)c1ccc(CNC(=O)c2cc(S(=O)(=O)N3CCCC3)cn2C)cc1,–,inactive: 24.2%
O=C(NC(NC(=O)c1cccnc1)c1ccc(Cl)cc1)c1cccnc1,"inconclusive: 112 µM [inhibitor, single point]",–
COC(=O)c1ccc2nc(C[C@@H]3C[C@@H](C(C)C)[C@H](CNCc4ccc(OC)cc4O)C=C3C)[nH]c2c1,"inconclusive: 79.4 µM [inhibitor, single point]",–
N#Cc1c(-c2ccccc2)[nH]c(=S)[nH]c1=O,"inconclusive: 6.31 µM [inhibitor, partial curve, poor fit]",–
O=C(N/N=C\c1cccnc1)C1c2ccccc2Oc2ccccc21,"inconclusive: 89.1 µM [inhibitor, partial curve, poor fit]",–
CCOC(=O)c1c(-c2ccc(OC)c(OC)c2)csc1NC(C)=O,–,inactive: -13.8%
Cc1ccc2nc(NC(=O)c3cccc(-c4cc5ccccc5oc4=O)c3)sc2c1,"inconclusive: 44.7 µM [inhibitor, partial curve, poor fit]",–

SMILES,Potency,"activity change, negative = inhibition"
CN(CCc1noc(C2CC2)n1)c1ncncc1C(=O)O,"inconclusive: 8.91 µM [inhibitor, partial curve, poor fit]",–
CC1Cc2ccccc2N1C(=O)CSc1nnc(-c2ccccc2)c(-c2ccccc2)n1 (stereo unspecified),–,inactive: 0.538%
CN(C)c1ccc(C(=O)N2CCCC(n3cc(-c4nc(C5CC5)no4)nn3)C2)cc1 (stereo unspecified),–,inactive: 21.5%
Cc1cnc(C(=O)N2CCC3(CC2)CC(CO)N(C(=O)c2ccccc2)C3)cn1 (stereo unspecified),–,inactive: 6.7%
Cc1ccccc1S(=O)(=O)NC(=O)C1(C)CCN1C(=O)CC1CCCC1 (stereo unspecified),"inconclusive: 112 µM [inhibitor, single point]",–
O=C(NCc1ccc(Cl)cc1)c1ccc(OCC2CCCO2)cc1 (stereo unspecified),"inconclusive: 126 µM [inhibitor, partial curve, poor fit]",–
COc1ccc(C2C(C(=O)Nc3ccc(F)cc3)=C(C)Nc3nc(CCCO)nn32)cc1 (stereo unspecified),"inconclusive: 5.01 µM [inhibitor, full curve, poor fit]",–
O=C(Nc1c2c(nn1-c1ccc(Cl)cc1)CS(=O)(=O)C2)c1cccc(F)c1,"inconclusive: 44.7 µM [inhibitor, partial curve, poor fit]",–
CC(C)CNC(=O)c1cccc(NC(=O)CSc2ccccc2)c1,"inconclusive: 70.8 µM [inhibitor, partial curve, poor fit]",–
COc1ccc(Cl)cc1NC(=O)C/C(C)=N/NC(=O)c1ccccc1[N+](=O)[O-],"inconclusive: 100 µM [inhibitor, single point]",–
CN(C)/C=C1\SC(=S)N(c2ccc(Br)cc2)C1=O,"inconclusive: 89.1 µM [inhibitor, partial curve, poor fit]",–
N#CC(C(=O)Nc1ccccc1)=C1CCCC1,"inconclusive: 44.7 µM [inhibitor, partial curve, poor fit]",–
O=C(Nc1cccc2[nH]ncc12)NS(=O)(=O)c1ccccc1,–,inactive: 0%
CCN(C(=O)c1cc2c(C)nc3ccccc3c2o1)c1cc(Cl)ccc1OC,–,inactive: -17.2%
CC1CN(S(=O)(=O)c2ccc(NC(=O)c3cc(-c4ccccc4O)n[nH]3)cc2)CC(C)O1 (stereo unspecified),"inconclusive: 2 µM [inhibitor, full curve, poor fit]",–
CCN(CC(=O)Nc1ccccc1OC)C(=O)c1ccc2[nH]c3c(c2c1)CC(C)CC3 (stereo unspecified),–,inactive: 1.31%
COc1cc(C(=S)N2CCCC2)cc(OC)c1O,"inconclusive: 50.1 µM [inhibitor, partial curve, poor fit]",–
COC(=O)c1ccc(C2c3c(-c4ccccc4O)n[nH]c3C(=O)N2Cc2ccncc2)cc1 (stereo unspecified),"inconclusive: 63.1 µM [inhibitor, partial curve, poor fit]",–
CCCCNCCCN1CCOCC1,"inconclusive: 0.355 µM [inhibitor, full curve, poor fit]",–
CCN(CC)C(=O)CSc1nnc(NC(=O)CCc2ccccc2)s1,"inconclusive: 112 µM [inhibitor, partial curve, poor fit]",–

# Reformatted with tabs: part of the list above
SMILES	Potency	activity change, negative = inhibition
Clc1ccccc1C1(c2ccnc(CC3CC3)n2)CCNCC1	inconclusive: 10 µM [inhibitor, full curve]	–
O=C(O)c1cccc2[nH]ccc12	–	inactive: 18.4%
O=S(=O)(c1ccc2c(c1)OCCO2)c1nc(-c2ccco2)oc1NCCCN1CCOCC1	inconclusive: 31.6 µM [inhibitor, partial curve, poor fit]	–
